Test results taken from patent US6780835B2, “Perfume compositions” (Quest International B.V., priority 1997, dated 2004).
Some entries repeat one wording, which the source may state once for all of them. Some compounds share one range, which may span the group rather than tell each member.

Assay: Deposition of perfume ingredients on spandex-containing cloth versus all-cotton cloth after washing (solvent extraction, gas chromatography)
Settings: concentration extracted from 95% cotton/5% spandex cloth relative to all-cotton cloth; detergent powder with 0.5% perfume; line dried overnight

Structure (SMILES)	Enhancement
CC(C)CCCC(C)(C)O [2,6-Dimethyl-heptan-2-ol]	L (less than 5 or not measurable, it was coded(L))
OCCc1ccccc1 [2-Phenylethanol]	L (less than 5 or not measurable, it was coded(L))
CC(=O)CCc1ccccc1 [Benzyl acetone]	M (greater than from the all-cotton cloth by a factor of 5 to 20, the result was coded as a medium enhancement (M))
CCOCOC1CCCCCCCCCCC1 [Boisambrene Forte]	M (greater than from the all-cotton cloth by a factor of 5 to 20, the result was coded as a medium enhancement (M))
CC(C)=CCCC(C)CCO (stereo not drawn) [Citronellol]	H (greater by 20 or more, it was coded high(H))
CC(=O)OC1CC2CC1C1CC=CC21 (stereo not drawn) [Jasmacyclene, tricyclodecenyl acetate]	H (greater by 20 or more, it was coded high(H))
COC(=O)c1ccccc1O [Methyl salicylate]	L (less than 5 or not measurable, it was coded(L))
CC(=O)OC(C)(C)C1CC=C(C)CC1 (stereo not drawn) [Terpinyl acetate]	H (greater by 20 or more, it was coded high(H))
CC(C)CCCC(C)CCO (stereo not drawn) [Tetrahydrogeraniol]	H (greater by 20 or more, it was coded high(H))
CCC(C)(O)CCCC(C)C (stereo not drawn) [Tetrahydrolinalol]	H (greater by 20 or more, it was coded high(H))
CC(=O)c1cc2c(cc1C)C(C)(C)C(C)CC2(C)C (stereo not drawn) [Tonalid]	M (greater than from the all-cotton cloth by a factor of 5 to 20, the result was coded as a medium enhancement (M))
COc1ccc2ccccc2c1 [Yara]	H (greater by 20 or more, it was coded high(H))
